# Test results from the supplement of paper PMC7877785.
# ± gives the uncertainty stated by the source. Many entries were measured with a wide error.
# Assay: self-splicing fitness, log relative to wild type (ln ratio); higher = more splicing; Tetrahymena group I intron in knt gene, E. coli kanamycin selection, DiMSum; sequences stand for … in CUCUCU…GGAGGGAAAAGUUAUCAGGCAUGCACCUGGUAGCUAGUCUUUAAACCAAUAGAUUGCAUCGGUUUAAAAGGCAAGACCGUCAAAUUGCGGGAAAGGGGUCAACAGCCGUUCAGUACCAAGUCUCAGGGGAAACUUUGAGAUGGCCUUGCAAAGGGUAUGGUAAUAAGCUGACGGACAUGGUCCUAACCACGCAGCCAAGUCCUAAGUCAACAGAUCUUCUGUUGAUAUGGAUGCAGUUCACAGACUAAAUGUCGGUCGGGGAAGAUGUAUUCUUCUCAUAAGAUAUAGUCGGACCUCUCCUUAAUGGGAGCUAGCGGAUGAAGUGAUGCAACACUGGAGCCGCUGGGAACUAAUUUGUAUGCGAAAGUAUAUUGAUUAGUUUUGGAGUACUCGUGGUCG
# Summary of the method: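 A randomised library covering all eight P1ex-region intron nucleotides was built with the intron in the knt kanamycin-resistance gene on pET-22b(+) and held in E. coli BL21(DE3). Cells were grown overnight at 37°C or 30°C on LB agar, with or without 25 μg/mL kanamycin, plus 100 μg/mL carbenicillin, 50 μM IPTG and 0.2% rhamnose, and pooled colonies were amplicon-sequenced on an Illumina HiSeq 2500. DiMSum fitness is the error-weighted combination of wild-type-normalised replicate fold changes, kanamycin versus none.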
Sequence,self-splicing fitness (ln) (37 °C),self-splicing fitness (ln) (30 °C)
UCGUAGCAAUAUUACGUACC,-0.468 ± 0.68,
GUUGAGCAAUAUUACGAUAG,,-4.39 ± 1
GUGUAGCAAUAUUACGCGCC,-0.681 ± 1.4,-0.455 ± 0.91
UGAGAGCAAUAUUACGCAUA,-3.38 ± 0.52,
UCCUAGCAAUAUUACGUUGU,-1.99 ± 0.29,-4.51 ± 0.59
UAGUAGCAAUAUUACGUCCA,-0.316 ± 0.56,
AAGAAGCAAUAUUACGCAGU,-2.08 ± 0.15,-2.66 ± 0.18
CUAUAGCAAUAUUACGUGGC,-1.8 ± 0.28,-2.86 ± 0.24
CUCUAGCAAUAUUACGAGUC,,-5.49 ± 1
CCCUAGCAAUAUUACGAUCC,,-4.2 ± 0.72
ACGGAGCAAUAUUACGAAGA,,-3.03 ± 1.1
GGAUAGCAAUAUUACGGGAA,-1.52 ± 0.61,-2.46 ± 0.51
UACGAGCAAUAUUACGUGGC,-2.9 ± 0.61,-3.48 ± 0.53
GCGAAGCAAUAUUACGUCCC,1.39 ± 0.83,0.592 ± 0.6
CUGUAGCAAUAUUACGCGUU,-2.26 ± 0.18,-4.19 ± 0.3
AACUAGCAAUAUUACGUCAC,-2.54 ± 0.76,
CCUAAGCAAUAUUACGCAAU,-4 ± 0.72,-3.49 ± 0.54
CUCAAGCAAUAUUACGAGGU,,-4.9 ± 0.59
CCGAAGCAAUAUUACGUAGC,-2.92 ± 0.53,
UUUCAGCAAUAUUACGUUCU,,-3.86 ± 0.52
AUUGAGCAAUAUUACGUUUG,,-4.63 ± 0.59
ACUAAGCAAUAUUACGAAUA,-2.55 ± 0.25,-2.99 ± 0.23
CAGAAGCAAUAUUACGGAGA,,-6.2 ± 1
AUUCAGCAAUAUUACGAGAU,-0.722 ± 0.13,-2.7 ± 0.17
UUUGAGCAAUAUUACGGGGG,-3.99 ± 0.51,

Sequence,self-splicing fitness (ln) (37 °C),self-splicing fitness (ln) (30 °C)
ACGGAGCAAUAUUACGGCCC,2.3 ± 0.73,-2.03 ± 0.59
CGGUAGCAAUAUUACGCUUA,,-3.65 ± 0.52
UGCGAGCAAUAUUACGACGC,-3.34 ± 1,
ACUCAGCAAUAUUACGCGAC,-1.85 ± 0.15,-2.16 ± 0.14
GUCGAGCAAUAUUACGCCCU,,-2.06 ± 0.66
UUCAAGCAAUAUUACGAACC,-2.2 ± 1.1,-4.52 ± 1
UGUUAGCAAUAUUACGUUUG,-1.26 ± 0.18,-2.14 ± 0.16
GGUGAGCAAUAUUACGCAUC,0.231 ± 0.68,
CUUAAGCAAUAUUACGGCAC,-3.19 ± 0.73,
UCCGAGCAAUAUUACGCUAC,-2.33 ± 0.63,
GAAUAGCAAUAUUACGCAGG,-2.28 ± 0.21,-2.6 ± 0.2
GACCAGCAAUAUUACGUCCA,-0.749 ± 0.095,-1.75 ± 0.095
GGCUAGCAAUAUUACGCAGU,-2.37 ± 0.76,
CGGGAGCAAUAUUACGGCGA,-2.46 ± 0.78,
CUGGAGCAAUAUUACGACCU,-2.2 ± 0.6,-3.89 ± 0.74
CCUCAGCAAUAUUACGUCCC,-1.76 ± 0.68,-3.4 ± 1.1
CAGUAGCAAUAUUACGAAGA,-2.1 ± 0.41,-2.59 ± 0.63
CCUUAGCAAUAUUACGCAAG,,-4.96 ± 0.51
GUUAAGCAAUAUUACGGUAU,-0.895 ± 0.12,-1.36 ± 0.11
UUCGAGCAAUAUUACGCGAA,-2.62 ± 0.76,-3.19 ± 1.2
GCAGAGCAAUAUUACGCAGC,-1.64 ± 0.66,
UGUGAGCAAUAUUACGUUUC,-2.67 ± 1.1,-2.09 ± 1.4
CCCGAGCAAUAUUACGCGAA,,-3.27 ± 0.53
AUUGAGCAAUAUUACGGGCG,,-4.6 ± 0.59
CAACAGCAAUAUUACGCCGC,-3.56 ± 0.6,

Sequence,self-splicing fitness (ln) (37 °C),self-splicing fitness (ln) (30 °C)
GUGGAGCAAUAUUACGUCGU,-1.48 ± 0.26,-1.65 ± 0.21
AAAAAGCAAUAUUACGGGUC,-2.7 ± 0.26,-3.39 ± 0.16
UAGGAGCAAUAUUACGUCGG,-0.705 ± 0.65,
UGGGAGCAAUAUUACGCUGA,-0.92 ± 0.61,-1.87 ± 0.57
UAGGAGCAAUAUUACGAGCU,,-3.45 ± 0.53
UAUUAGCAAUAUUACGGGAC,-2.37 ± 0.51,-2.48 ± 0.54
CUCCAGCAAUAUUACGACUA,-2.53 ± 0.29,-2.47 ± 0.21
UUUUAGCAAUAUUACGCAGU,-1.98 ± 0.52,-3.94 ± 0.59
UCAGAGCAAUAUUACGAGCC,,-3.64 ± 0.6
UAGGAGCAAUAUUACGUAAU,-2.02 ± 0.68,
UCUCAGCAAUAUUACGAGGC,,-3.47 ± 1
UACCAGCAAUAUUACGGAAG,-1.57 ± 0.16,-3.5 ± 0.24
AAUGAGCAAUAUUACGUAUG,,-3.4 ± 0.75
GUAUAGCAAUAUUACGAUUG,-1.67 ± 0.3,-3.48 ± 0.42
UGUGAGCAAUAUUACGUGAA,,-4.7 ± 1
GUGGAGCAAUAUUACGACAU,-1.48 ± 0.038,-2.402 ± 0.022
GGGGAGCAAUAUUACGUCAG,-1.06 ± 0.59,
CUAGAGCAAUAUUACGGUUC,-3.7 ± 0.59,-3.81 ± 0.6
CGCUAGCAAUAUUACGCGUG,-1.77 ± 0.12,-2.8 ± 0.13
GUGCAGCAAUAUUACGUGCC,-3.41 ± 0.73,-3.63 ± 0.61
AAUCAGCAAUAUUACGUUUG,-1.94 ± 0.13,-2.11 ± 0.092
GGCAAGCAAUAUUACGUCCC,,-3.54 ± 1
UCAGAGCAAUAUUACGUAGC,-2.68 ± 0.54,-2.09 ± 0.54
